US20230357323A1, “HUMAN IL23 RECEPTOR BINDING POLYPEPTIDES” (University of Washington, priority 2020, published 2023)
These are yes or no findings as the source states them, for the method shown. Some results given as binding are weak or reduced against the parent protein; the word gives no strength.

Amino acid sequences for entries named in this document (tags omitted). Residues count along the entry.
UniProt Q5VWK5, residues 24-355: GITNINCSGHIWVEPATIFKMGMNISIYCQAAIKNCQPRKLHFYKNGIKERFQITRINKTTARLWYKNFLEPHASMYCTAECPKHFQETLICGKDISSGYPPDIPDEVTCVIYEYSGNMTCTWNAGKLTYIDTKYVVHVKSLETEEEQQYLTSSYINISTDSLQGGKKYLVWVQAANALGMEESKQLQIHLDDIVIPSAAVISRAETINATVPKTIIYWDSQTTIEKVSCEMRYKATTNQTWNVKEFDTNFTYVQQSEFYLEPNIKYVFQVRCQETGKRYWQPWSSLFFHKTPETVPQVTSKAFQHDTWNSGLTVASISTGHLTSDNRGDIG

B1: B04dslf02_trunc08 (designed binder)
chain: NLWQIFYLLNTCIKRTGDPTCKKLKKALRECLKKGD
B2: B04dslf02_trunc16 (designed binder)
chain: NLWQIFYLLNTCIKRTGDPTCKKLKKALRECLKKGDEKACKELAKKAMKYI
B3: B04dslf02_trunc14 (designed binder)
chain: NLWQIFYLLNTCIKRTGDPTCKKLKKALRECLKKGDEKACKELAK
B4: B04dslf02_trunc04 (designed binder)
chain: NLWQIFYLLNTCIKRTGDPTCKKLK
B5: B04dslf02_trunc11 (designed binder)
chain: NLWQIFYLLNTCIKRTGDPTCKKLKKALRECLKKGDEKACK
B6: B04dslf02_trunc12 (designed binder)
chain: NLWQIFYLLNTCIKRTGDPTCKKLKKALRECLKKGDEKACKE
B7: B04dslf02_trunc05 (designed binder)
chain: NLWQIFYLLNTCIKRTGDPTCKKLKKAL
B8: B04dslf02_trunc13 (designed binder)
chain: NLWQIFYLLNTCIKRTGDPTCKKLKKALRECLKKGDEKACKELA
B9: B04dslf02_trunc01 (designed binder)
chain: NLWQIFYLLNTCIKRTG
B10: B04dslf02_trunc07 (designed binder)
chain: NLWQIFYLLNTCIKRTGDPTCKKLKKALRECLK
B11: B04dslf02_trunc10 (designed binder)
chain: NLWQIFYLLNTCIKRTGDPTCKKLKKALRECLKKGDEKAC
B12: B04dslf02_trunc06 (designed binder)
chain: NLWQIFYLLNTCIKRTGDPTCKKLKKALRECL
B13: B04dslf02_trunc09 (designed binder)
chain: NLWQIFYLLNTCIKRTGDPTCKKLKKALRECLKKGDE
B14: B04dslf02_trunc03 (designed binder)
chain: NLWQIFYLLNTCIKRTGDPTCK
B15: B04dslf02_trunc15 (designed binder)
chain: NLWQIFYLLNTCIKRTGDPTCKKLKKALRECLKKGDEKACKELAKKAM
B16: B04dslf02_trunc02 (designed binder)
chain: NLWQIFYLLNTCIKRTGDPTC
B17: B04dslf02IB (designed binder)
chain: PLWQVFYLLNTCIKRTGDPTCKKLAKALRECLKKGDLKACNELADKAVKYINSHHHHHH
B18: 23R_A (designed binder)
chain: MESEKYLRELVKKYYEGKLSVQEAVEEVRKYARKKGLEAWMLTWMFMELVKRYIHHHHHH
B19: 23R_G (designed binder)
chain: TPARELVRELVALALLIAVLRNDIVRLTLDVQGFKITVDVDAHWEAFVRILLLAEILVLEWLKG
B20: 23R_H (designed binder)
chain: DWRELMLVWMALWWIWWAFLAGVPLIVEVVVNGLHFRVIVDRDPTTNKRALDIMLWVWEWLATL
B21: 23R_I (designed binder)
chain: GRWELLVLAYLALLLGAAEAVWRLLELAKKLGDEMAFRWILELWERAL
B22: 23R_C (designed binder)
chain: PEELRRRVEHFLRQGVERWMVMWMLIQQGFDNKEVWKVLQEVL
B23: 23R_F (designed binder)
chain: TVVIINGVPFWFEFLWELFIFALLMALALGLKIEFHGELIEVK
B24: 23R_D (designed binder)
chain: ELWFLMALVIAACLWAWKASNVEEAEEALWWALVMAREANMRQLEEFVKRMREEVRRHL
B25: 23R_E (designed binder)
chain: DVVVLLGLVIVIPERWRLWLIVVIAARVMGLRVEVHGHVIIVI

These binders were tested against human IL-23R (hIL-23R), custom construct with C-terminal avi and his tags, biotinylated (human) (UniProt Q5VWK5) (assay: yeast display FACS and NGS analysis).

binding	Binder
binds	B1
binds	B2
binds	B3
binds	B4
binds	B5
binds	B6
binds	B7
binds	B8
binds	B9
binds	B10
binds	B11
binds	B12
binds	B13
binds	B14
binds	B15
binds	B16

Each binder was assayed against human IL-23R (hIL-23R), custom construct with C-terminal avi and his tags, biotinylated (human) (UniProt Q5VWK5) (assay: yeast display FACS, SIF incubation then labeled hIL-23R, 5-7 rounds).

binding	Binder
binds	B17

The binders below were run against human IL-23R (hIL-23R), custom construct with C-terminal avi and his tags, biotinylated (human) (UniProt Q5VWK5) (assay: biolayer interferometry titration, biotinylated hIL-23R immobilised on streptavidin tips).

binding	Binder
binds	B18

Each binder was assayed against human IL-23R (hIL-23R), custom construct with C-terminal avi and his tags, biotinylated (human) (UniProt Q5VWK5) (assay: yeast display, FACS rounds for binding labeled hIL-23R, NGS enrichment).

binding	Binder
binds	B19
binds	B20
binds	B21
binds	B22
binds	B23
binds	B24
binds	B25
